Article PMC4742909

Tests used:
[1] = target: T1, ARHGAP33 (mouse (endogenous in hippocampus)) (UniProt Q80YF9); test: co-IP; anti-ARHGAP33 immunoprecipitates from hippocampal lysates of WT and ARHGAP33 KO mice; TNE buffer, antibody on ice 1 h, protein G-sepharose, five washes; immunoblot
T1 sequence: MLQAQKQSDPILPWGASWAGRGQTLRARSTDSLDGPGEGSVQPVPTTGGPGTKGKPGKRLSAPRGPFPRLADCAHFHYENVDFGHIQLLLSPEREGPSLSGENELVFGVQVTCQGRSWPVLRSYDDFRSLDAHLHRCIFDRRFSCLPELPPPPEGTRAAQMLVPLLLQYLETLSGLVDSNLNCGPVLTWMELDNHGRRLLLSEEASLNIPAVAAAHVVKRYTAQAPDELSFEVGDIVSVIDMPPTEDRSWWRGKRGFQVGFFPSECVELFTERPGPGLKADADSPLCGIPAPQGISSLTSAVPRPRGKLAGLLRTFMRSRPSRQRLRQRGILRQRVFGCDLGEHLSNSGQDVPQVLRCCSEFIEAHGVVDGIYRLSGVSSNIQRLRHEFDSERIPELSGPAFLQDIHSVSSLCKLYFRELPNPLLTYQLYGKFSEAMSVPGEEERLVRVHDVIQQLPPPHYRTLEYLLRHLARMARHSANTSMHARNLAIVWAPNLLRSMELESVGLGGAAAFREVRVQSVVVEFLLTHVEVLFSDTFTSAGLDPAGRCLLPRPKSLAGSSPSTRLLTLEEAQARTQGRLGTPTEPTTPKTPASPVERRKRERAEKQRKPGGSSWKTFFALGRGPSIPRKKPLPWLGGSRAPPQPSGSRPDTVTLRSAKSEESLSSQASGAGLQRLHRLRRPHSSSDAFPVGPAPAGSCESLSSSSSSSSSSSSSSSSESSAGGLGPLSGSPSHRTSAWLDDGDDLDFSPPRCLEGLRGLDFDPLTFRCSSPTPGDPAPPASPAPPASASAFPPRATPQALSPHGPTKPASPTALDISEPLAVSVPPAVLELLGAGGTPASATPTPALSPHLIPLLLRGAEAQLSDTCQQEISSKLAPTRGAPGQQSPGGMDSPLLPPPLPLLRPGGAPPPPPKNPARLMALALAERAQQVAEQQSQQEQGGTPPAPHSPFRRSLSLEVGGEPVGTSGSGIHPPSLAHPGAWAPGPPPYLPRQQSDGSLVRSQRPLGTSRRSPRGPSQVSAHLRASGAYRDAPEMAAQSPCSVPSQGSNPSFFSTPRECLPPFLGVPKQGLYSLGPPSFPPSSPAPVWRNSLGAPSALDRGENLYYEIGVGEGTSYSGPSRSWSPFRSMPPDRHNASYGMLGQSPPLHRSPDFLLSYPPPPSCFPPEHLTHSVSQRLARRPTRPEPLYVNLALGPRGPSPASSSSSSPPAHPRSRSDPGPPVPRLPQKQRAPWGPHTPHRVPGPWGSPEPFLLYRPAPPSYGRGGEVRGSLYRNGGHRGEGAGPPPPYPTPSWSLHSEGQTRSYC

[2] = target: T2, ARHGAP33 (expressed from pME-ARHGAP33) (UniProt Q80YF9); test: co-IP; HEK293T cells transfected with ARHGAP33, SORT1 and TrkB as indicated; TNE lysates, protein G-sepharose; immunoblot
T2 sequence: T1 sequence

Row | Substance | binding [1] | binding [2]
1 | Rab27 (mouse (endogenous in hippocampus)) | no binding | –
2 | SORT1 (cDNA from Origene in pME18S) (receptor) | – | binds

These are yes or no findings as the source states them, for the method shown. Binding seen in cells or lysates may run through a third protein. For some assays here: Binding calls can cover weak binding; strength is not graded here.
